Laboratory results: the supplement of paper PMC11006884
The entries are a selection whose mix differs from that of the whole data set.

The chains behind the UniProt entries cited, without tags or fusion partners. Where a name states a change or a piece, a line headed by the entry shows the natural chain unless it says otherwise.
UniProt Q969Z3: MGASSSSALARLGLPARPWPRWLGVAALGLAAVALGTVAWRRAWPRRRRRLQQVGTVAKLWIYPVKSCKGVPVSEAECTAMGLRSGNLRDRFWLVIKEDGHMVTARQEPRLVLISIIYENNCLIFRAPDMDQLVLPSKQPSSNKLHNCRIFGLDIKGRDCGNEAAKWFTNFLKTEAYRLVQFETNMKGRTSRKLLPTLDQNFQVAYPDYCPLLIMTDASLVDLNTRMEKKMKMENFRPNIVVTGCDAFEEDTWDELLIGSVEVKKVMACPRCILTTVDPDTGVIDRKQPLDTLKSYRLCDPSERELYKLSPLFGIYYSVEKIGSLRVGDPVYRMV
UniProt Q92997: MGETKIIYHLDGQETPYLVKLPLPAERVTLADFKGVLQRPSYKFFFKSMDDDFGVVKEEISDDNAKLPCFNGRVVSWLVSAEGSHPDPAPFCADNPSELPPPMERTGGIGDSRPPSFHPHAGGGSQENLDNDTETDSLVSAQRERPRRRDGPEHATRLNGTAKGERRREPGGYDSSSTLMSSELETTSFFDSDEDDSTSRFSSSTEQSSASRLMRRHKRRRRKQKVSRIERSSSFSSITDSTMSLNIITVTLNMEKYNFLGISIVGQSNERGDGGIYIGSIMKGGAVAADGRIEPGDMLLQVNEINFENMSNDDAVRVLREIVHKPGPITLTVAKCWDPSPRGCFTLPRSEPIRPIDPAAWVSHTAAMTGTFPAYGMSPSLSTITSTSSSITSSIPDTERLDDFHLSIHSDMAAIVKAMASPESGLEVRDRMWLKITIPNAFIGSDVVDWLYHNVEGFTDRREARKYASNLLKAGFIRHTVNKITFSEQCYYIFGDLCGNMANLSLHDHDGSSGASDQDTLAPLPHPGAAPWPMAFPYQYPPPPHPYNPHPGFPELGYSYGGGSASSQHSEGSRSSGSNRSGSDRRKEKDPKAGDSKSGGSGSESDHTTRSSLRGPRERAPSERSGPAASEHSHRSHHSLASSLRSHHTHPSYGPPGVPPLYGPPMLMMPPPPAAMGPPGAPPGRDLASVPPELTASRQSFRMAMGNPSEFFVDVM
UniProt Q96AG4: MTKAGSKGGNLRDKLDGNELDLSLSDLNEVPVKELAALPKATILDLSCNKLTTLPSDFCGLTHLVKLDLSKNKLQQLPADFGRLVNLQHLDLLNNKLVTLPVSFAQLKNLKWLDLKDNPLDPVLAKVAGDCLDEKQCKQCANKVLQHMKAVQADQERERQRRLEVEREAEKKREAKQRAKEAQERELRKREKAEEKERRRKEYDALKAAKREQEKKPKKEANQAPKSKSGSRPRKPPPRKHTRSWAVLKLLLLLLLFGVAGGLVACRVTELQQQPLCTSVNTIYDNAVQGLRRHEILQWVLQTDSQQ
UniProt Q93009, whole entry, looked up: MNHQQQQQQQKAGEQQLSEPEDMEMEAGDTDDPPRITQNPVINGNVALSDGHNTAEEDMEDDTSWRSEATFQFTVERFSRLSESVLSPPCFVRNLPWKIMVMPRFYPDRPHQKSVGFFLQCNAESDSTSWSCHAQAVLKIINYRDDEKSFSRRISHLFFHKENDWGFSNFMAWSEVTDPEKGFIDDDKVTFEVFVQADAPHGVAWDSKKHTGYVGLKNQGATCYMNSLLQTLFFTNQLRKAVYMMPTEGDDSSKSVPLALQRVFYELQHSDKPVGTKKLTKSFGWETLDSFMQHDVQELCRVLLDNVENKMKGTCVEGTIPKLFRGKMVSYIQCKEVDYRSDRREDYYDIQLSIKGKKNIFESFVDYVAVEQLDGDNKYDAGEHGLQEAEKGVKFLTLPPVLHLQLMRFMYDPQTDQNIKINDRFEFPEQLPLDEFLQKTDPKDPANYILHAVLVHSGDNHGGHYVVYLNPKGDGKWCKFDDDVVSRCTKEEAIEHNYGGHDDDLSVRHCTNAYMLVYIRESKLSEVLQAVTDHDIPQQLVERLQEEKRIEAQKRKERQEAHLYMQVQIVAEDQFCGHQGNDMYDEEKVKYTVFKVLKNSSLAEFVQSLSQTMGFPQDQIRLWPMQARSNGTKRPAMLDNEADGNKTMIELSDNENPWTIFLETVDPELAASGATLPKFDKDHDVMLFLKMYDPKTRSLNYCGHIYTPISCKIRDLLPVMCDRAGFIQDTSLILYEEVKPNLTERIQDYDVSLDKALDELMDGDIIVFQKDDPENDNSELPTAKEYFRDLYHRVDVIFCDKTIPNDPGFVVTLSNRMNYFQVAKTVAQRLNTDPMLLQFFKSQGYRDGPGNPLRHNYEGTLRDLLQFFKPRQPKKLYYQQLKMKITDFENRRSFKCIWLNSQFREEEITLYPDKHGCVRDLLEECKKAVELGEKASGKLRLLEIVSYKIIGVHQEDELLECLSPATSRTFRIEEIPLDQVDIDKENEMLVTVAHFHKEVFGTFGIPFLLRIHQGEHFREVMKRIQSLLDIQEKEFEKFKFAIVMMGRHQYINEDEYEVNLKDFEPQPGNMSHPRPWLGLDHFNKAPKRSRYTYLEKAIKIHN
UniProt Q92879: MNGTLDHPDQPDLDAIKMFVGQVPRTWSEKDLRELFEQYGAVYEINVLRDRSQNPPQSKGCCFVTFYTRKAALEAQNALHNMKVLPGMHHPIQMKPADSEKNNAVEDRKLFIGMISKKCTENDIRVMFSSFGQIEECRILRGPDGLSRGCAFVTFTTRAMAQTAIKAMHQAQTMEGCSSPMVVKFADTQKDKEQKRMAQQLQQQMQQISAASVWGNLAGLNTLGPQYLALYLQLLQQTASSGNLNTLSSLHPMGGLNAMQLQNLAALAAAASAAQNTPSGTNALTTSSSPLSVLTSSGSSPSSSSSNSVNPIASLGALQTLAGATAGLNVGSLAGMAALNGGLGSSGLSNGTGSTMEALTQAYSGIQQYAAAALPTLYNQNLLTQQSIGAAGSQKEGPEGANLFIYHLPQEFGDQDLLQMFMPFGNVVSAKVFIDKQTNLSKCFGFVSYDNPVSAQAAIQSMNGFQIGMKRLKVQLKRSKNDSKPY
UniProt Q92598: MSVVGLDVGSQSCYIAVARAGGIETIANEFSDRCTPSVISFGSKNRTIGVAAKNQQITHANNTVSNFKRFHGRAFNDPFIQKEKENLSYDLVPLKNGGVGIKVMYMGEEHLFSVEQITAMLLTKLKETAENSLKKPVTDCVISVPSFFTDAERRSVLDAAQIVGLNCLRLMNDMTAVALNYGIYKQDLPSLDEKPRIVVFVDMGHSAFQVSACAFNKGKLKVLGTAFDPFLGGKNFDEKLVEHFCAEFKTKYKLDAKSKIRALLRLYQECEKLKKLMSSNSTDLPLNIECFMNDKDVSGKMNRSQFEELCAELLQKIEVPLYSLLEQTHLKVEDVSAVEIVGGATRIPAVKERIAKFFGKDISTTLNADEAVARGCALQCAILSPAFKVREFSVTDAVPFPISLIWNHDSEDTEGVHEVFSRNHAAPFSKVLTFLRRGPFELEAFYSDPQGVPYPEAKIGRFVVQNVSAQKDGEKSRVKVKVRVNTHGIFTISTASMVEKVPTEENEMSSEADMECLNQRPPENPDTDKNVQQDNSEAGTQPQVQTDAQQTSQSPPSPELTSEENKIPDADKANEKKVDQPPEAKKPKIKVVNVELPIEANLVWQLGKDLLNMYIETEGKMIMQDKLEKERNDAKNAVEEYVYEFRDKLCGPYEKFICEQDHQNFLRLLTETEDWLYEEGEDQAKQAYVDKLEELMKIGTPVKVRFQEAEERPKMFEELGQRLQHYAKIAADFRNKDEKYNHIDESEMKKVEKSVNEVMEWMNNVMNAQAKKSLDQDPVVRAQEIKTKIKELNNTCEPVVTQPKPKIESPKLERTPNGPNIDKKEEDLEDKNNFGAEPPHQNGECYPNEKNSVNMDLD
UniProt Q96AE4: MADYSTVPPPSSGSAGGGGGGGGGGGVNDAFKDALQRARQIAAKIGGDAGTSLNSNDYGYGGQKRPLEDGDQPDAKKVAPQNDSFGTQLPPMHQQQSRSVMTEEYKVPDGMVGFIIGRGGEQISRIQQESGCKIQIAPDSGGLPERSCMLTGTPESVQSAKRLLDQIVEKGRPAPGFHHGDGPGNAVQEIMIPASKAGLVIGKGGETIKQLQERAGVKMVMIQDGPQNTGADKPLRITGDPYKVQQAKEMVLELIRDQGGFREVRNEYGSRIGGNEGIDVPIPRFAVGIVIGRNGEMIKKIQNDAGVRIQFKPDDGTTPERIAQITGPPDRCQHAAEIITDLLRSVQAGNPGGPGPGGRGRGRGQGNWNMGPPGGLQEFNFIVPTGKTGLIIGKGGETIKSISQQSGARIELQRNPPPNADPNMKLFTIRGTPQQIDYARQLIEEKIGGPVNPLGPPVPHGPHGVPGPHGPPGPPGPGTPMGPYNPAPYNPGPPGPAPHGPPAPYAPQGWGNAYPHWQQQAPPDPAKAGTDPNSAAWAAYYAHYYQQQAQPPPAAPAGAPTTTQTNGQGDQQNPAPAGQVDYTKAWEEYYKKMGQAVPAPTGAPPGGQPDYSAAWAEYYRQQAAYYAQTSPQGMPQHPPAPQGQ
UniProt Q92922, whole entry, looked up: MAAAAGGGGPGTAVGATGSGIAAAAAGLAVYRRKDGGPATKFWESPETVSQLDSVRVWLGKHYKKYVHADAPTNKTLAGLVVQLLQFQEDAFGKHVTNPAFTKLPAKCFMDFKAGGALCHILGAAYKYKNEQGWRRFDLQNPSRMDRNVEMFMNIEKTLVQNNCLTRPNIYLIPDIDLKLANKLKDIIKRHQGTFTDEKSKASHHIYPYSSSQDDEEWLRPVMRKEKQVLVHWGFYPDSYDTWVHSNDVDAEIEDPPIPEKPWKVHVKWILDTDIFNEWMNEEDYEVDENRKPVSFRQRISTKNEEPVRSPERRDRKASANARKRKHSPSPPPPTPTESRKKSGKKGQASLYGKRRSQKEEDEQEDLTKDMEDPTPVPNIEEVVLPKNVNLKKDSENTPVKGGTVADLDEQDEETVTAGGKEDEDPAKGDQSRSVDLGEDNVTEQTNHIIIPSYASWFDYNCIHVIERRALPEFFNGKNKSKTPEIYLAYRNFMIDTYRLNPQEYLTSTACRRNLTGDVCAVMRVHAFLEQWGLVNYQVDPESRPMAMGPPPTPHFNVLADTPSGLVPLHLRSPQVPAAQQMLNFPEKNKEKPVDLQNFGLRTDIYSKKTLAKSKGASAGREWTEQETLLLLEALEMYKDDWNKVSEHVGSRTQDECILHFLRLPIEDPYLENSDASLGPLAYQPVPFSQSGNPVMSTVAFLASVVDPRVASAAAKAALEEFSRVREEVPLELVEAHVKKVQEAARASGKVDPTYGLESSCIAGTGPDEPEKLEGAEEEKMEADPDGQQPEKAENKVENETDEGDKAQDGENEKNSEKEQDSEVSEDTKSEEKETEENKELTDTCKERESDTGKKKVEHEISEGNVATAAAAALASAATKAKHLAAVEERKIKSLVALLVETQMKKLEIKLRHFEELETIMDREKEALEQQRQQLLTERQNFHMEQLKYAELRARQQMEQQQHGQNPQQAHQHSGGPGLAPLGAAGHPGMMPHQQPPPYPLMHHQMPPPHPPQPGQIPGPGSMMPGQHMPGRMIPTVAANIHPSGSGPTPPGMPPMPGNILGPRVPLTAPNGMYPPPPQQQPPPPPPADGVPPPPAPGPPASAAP
UniProt Q92841: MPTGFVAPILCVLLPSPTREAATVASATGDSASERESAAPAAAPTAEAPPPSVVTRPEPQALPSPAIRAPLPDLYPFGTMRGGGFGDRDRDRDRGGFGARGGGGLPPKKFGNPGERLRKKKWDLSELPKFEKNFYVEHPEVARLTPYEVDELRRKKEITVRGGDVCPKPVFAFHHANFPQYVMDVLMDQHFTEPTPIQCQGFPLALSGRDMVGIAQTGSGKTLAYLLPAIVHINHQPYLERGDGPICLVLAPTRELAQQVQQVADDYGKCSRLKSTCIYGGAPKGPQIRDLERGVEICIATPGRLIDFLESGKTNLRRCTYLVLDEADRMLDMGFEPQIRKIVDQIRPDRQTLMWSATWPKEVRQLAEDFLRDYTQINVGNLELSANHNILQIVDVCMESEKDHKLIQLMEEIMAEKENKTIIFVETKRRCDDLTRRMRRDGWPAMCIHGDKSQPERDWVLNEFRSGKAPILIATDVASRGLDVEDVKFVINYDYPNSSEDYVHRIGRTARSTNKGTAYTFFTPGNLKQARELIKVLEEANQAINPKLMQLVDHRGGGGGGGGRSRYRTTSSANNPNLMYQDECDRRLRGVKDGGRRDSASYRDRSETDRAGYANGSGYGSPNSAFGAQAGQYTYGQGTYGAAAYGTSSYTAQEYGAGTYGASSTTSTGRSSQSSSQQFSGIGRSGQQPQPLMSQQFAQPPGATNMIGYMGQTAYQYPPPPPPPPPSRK

compound: COC(=O)C#Cc1ccccc1 [methyl 3-phenylpropiolate]; assay: log2 ratio of iodoacetamide-alkyne labeling of the cysteine site, DMSO over compound (competition); higher = stronger covalent engagement of the cysteine by the compound, active = 1 or more; conditions: 500 µM; treatment time 1 h; system: HEK293T cell lysate
Outline: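 Electrophile (500 µM) or vehicle was added to HEK293T lysate (2 mg/mL) for 1 h at ambient temperature before iodoacetamide alkyne labelling (1 h) and click coupling to sCIP-TMT reagents. After pooling, overnight trypsin digestion at 37 °C, streptavidin enrichment and acid elution, peptides were measured by Orbitrap Eclipse LC-MS/MS with FAIMS and quantified in FragPipe. Each cysteine's log2 competition ratio compares mean control-channel with mean compound-channel reporter intensity, control over compound. Data came from duplicate channels across three replicates, excluding cysteines quantified in only one replicate.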

| Target | log2 ratio of iodoacetamide-alkyne labeling |
| --- | --- |
| TOE1 C271 (UniProt Q96GM8) | inactive: -0.12 |
| MASTL C285 (UniProt Q96GX5) | active: 1.02 |
| MRPL24 C190 (UniProt Q96A35) | inactive: -0.00775 |
| UniProt Q969Z3_C272 | inactive: 0.574 |
| DVL3 C92 (UniProt Q92997) | inactive: 0.396 |
| LRRC59 C59 (UniProt Q96AG4) | inactive: 0.222 |
| USP7 C961 (UniProt Q93009) | inactive: 0.169 |
| UniProt Q92879_C61 | inactive: -0.0617 |
| DVL3 C69 (UniProt Q92997) | inactive: 0.272 |
| NRBF2 C126 (UniProt Q96F24) | inactive: 0.14 |
| LPP C465 (UniProt Q93052) | inactive: 0.118 |
| HSPH1 C290 (UniProt Q92598) | inactive: 0.152 |
| FUBP1 C332 (UniProt Q96AE4) | inactive: 0.285 |
| SMARCC1 C462 (UniProt Q92922) | inactive: 0.313 |
| UniProt Q92841_C319 | inactive: 0.141 |
| AKAP1 C376 (UniProt Q92667) | active: 1.15 |

Shown with tabs: part of the list above.
Target	log2 ratio of iodoacetamide-alkyne labeling
DVL3 C69 (UniProt Q92997)	inactive: 0.272
NRBF2 C126 (UniProt Q96F24)	inactive: 0.14
